Measurements: article PMC7763843, “Cytochrome P450 Expression and Chemical Metabolic Activity before Full Liver Development in Zebrafish” (Pharmaceuticals, 2020)
Counter-ions that a name gives are not always drawn.

assay: Measured concentrations of test compounds in test solutions (Cw); details: test solution, exposure up to 120 hpf

| Structure (SMILES) | Time-weighted mean measured Cw as % of the nominal concentration [%] | Time-weighted mean of measured concentration (Cw) [mg/L] |
| --- | --- | --- |
| C[C@]12CC[C@H]3[C@@H](CCC4=CC(=O)CC[C@@]43C)[C@@H]1CC[C@@H]2O [testosterone] | 93.3 | 2.80 |
| Cn1c(=O)c2c(ncn2C)n(C)c1=O [caffeine] | 102 | 10.2 |
| O=C(O)Cc1ccccc1Nc1c(Cl)cccc1Cl [diclofenac, diclofenac sodium salt] | 107 | 3.41 |
